Two molecules from article PMC5900569 can be followed below.

The target of assay [1] is Caenorhabditis elegans Tudor staphylococcal nuclease (cTSN) (Caenorhabditis elegans) (UniProt Q19328). In words: SEC-MALS; 1 mg/mL, 100 µL injected on Agilent-Bio SEC-3 column; PBS (pH 7.4) with 150 mM NaCl and 5 mM β-mercaptoethanol, 0.2 mL/min; both purified. In general terms: SEC sorts molecules by how far they enter the pores of the column.
Assay [2] shares this target. In words: AUC; sedimentation velocity, 40,000 rpm, 4°C; protein at OD280 of 1.0 in 50 mM HEPES (pH 7.0), 150 mM NaCl, 10 mM imidazole, 1 mM β-mercaptoethanol; c(s) distribution (SEDFIT); both purified.
Assay [3] addresses T1, Homo sapiens Tudor staphylococcal nuclease (hTSN) (Homo sapiens), Q7KZF4.
T1 chain: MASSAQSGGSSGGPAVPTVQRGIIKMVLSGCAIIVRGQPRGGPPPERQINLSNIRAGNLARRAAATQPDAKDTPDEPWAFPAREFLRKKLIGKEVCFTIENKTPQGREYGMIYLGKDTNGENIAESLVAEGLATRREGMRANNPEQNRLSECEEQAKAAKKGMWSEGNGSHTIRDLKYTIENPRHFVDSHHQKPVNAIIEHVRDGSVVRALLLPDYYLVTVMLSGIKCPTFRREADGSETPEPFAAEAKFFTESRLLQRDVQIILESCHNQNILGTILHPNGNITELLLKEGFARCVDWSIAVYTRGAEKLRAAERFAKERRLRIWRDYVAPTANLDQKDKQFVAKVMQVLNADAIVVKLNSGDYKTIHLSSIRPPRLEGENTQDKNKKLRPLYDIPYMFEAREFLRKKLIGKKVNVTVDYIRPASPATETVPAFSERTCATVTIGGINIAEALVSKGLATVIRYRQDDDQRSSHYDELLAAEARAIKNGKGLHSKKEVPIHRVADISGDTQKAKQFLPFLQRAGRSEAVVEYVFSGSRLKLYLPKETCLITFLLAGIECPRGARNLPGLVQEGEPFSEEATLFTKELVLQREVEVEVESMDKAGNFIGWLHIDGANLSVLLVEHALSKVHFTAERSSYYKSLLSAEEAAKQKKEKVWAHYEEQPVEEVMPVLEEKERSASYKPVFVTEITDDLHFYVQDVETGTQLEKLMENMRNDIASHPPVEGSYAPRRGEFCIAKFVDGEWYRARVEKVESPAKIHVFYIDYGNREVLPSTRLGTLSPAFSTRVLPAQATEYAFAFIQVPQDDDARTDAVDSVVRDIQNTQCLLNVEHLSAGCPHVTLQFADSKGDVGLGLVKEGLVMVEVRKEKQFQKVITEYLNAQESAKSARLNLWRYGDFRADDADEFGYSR
Briefly: SEC-MALS; 1 mg/mL, 100 µL injected on Agilent-Bio SEC-3 column; PBS (pH 7.4) with 150 mM NaCl and 5 mM β-mercaptoethanol, 0.2 mL/min; both purified. The following applies: remark: other sources report otherwise.

For assay [4], the target named is T1, Homo sapiens Tudor staphylococcal …. Briefly: AUC; sedimentation velocity, 40,000 rpm, 4°C; protein at OD280 of 1.0 in 50 mM HEPES (pH 7.0), 150 mM NaCl, 10 mM imidazole, 1 mM β-mercaptoethanol; c(s) distribution (SEDFIT); both purified. The following applies: remark: other sources report otherwise.

These are yes or no findings as the source states them, for the method shown.

B1: Caenorhabditis elegans Tudor staphylococcal nuclease (cTSN) (enzyme, UniProt Q19328 1-914)
chain: MTDAAAATPTVPPPAASSANPAVRRGLVKSVLSGDAVILQGQPHNGPPPEWTVYLSNVTAPRLGRRPTDSASATPDEPYAWDSREYLRQKLVGQFVTFVRDFTATSGRDHGRIYLGGTSPADAENVAEGAVSAGLLEVRQGKVADEYSTKLLELQEQAKSAGRGKWNSNAGTIRDIRWVIDNPRELVDKYAQKPIDAVIEMVRDGSTVRAFLLPNFEYITLQLSGVRAPSTRNPNAADSRAEAFSEEAKFFAESRLLQRDVQIILESTSNQNFVGSIVHPKGNIAESLLREGYAKCVDWSIGLCTGGAQKLRDAERQAKEKRLRLWKSYQPTSSAYSGDRKAFTGKVVEIVLSDAVVVQKDDGSEVKLHLSSIRLPRESGDDKATGGPGRQFRPLYDIPFMFQAREFLRKRLLGKKVQIQIDYVQPKSENFPEKTCATIKIGDQNIAEGLISRGLSKVVRHRADDENRSSEYDTLLAAEANAEKGKKGLFADKTAEKKDTHRIQEITGDLAKAKQFLPYLQRGGRAEGVVEFLSGGSRLRIYIPKETVLITFLLGGINCPKGARVGPGGVSTGAAEPFADEAAAFTRKLVLQHEVQLEVESTDKNGNFVGYLYVSPDGNTSRAINLSEALVENGLASLHFTAERSGHYNALLSAENKAKKAKKNIWANFTEEQHQEEVEVQQADTSERKQNFRQVAVTDIAPGALRFSAQNIEDGPKIEKMTTEMRQALAEHPPLAGSYTTKRGDLCVAKFSQDGQWYRCKVESVRAGQAEIVYIDYGNRETIEAVKLAQIPAGFANFPAGVREYNLALAKLPNEDYVQLTSDAFAQYLFGHSSVFINSEYKVGTSEYVTVYYDSGNKKVDIGKSLIAEGLALADHRREPRLQTLVNDYNTTEEVARKSRKNIWEYGDFTGNDI
On to B1, for which the values for the binding entry in assay [1] and in assay [2] were “no binding (tested: 1 mg/mL)” and “no binding (tested: OD280 of 1.0)”, respectively.

B2: Homo sapiens Tudor staphylococcal nuclease (hTSN), Q7KZF4 1-910 (enzyme)
chain: T1 chain
Consider B2, for which the results for the binding result in assay [3] and in assay [4] were “no binding (tested: 1 mg/mL)” and “no binding (tested: OD280 of 1.0)”, respectively.
